Numbering of substitutions follows the chain as printed.
B1: 108, 131: human NgR1 mutant, listed residues mutated to alanine (protein)
chain: CPGACVCYNEPKVTTSCPQQGLQAVPVGIPAASQRIFLHGNRISHVPAASFRACRNLTILWLHSNVLARIDAAAFTGLALLAQLDLSDNAQLRSVDPATFHGLGALHTLHLDRCGLQELGPGLFRGLAALQYLYLQDNALQALPDDTFRDLGNLTHLFLHGNRISSVPERAFRGLHSLDRLLLHQNRVAHVHPHAFRDLGRLMTLYLFANNLSALPTEALAPLRALQYLRLNDNPWVCDCRARPLWAWLQKFRGSSSEVPCSLPQRLAGRDLKRLAANDLQGCAVATGPYHPIWTGRATDEEPLGLPKCCQPDAADKASVLEPGRPASAGNALKGRVPPGDSPPGNGSGPRHINDSPFGTLPGSAEPPLTAVRPEGSEPPGFPTSGPRRRPGCSRKNRTRSHCRLGQAGSGGGGTGDSEGSGALPSLTCSLTPLGLALVLWTVLGPC
B2: 256, 259: human NgR1 mutant, listed residues mutated to alanine (protein)
chain: B1 chain with A82E, A105R, R230A, D233A
B3: 78, 81: human NgR1 mutant, listed residues mutated to alanine (protein)
chain: B1 chain with R52A, R55A, A82E, A105R
B4: 87, 89: human NgR1 mutant, listed residues mutated to alanine (protein)
chain: B1 chain with W61A, H63A, A82E, A105R
B5: 89, 90: human NgR1 mutant, listed residues mutated to alanine (protein)
chain: B1 chain with H63A, S64A, A82E, A105R
B6: 95, 97: human NgR1 mutant, listed residues mutated to alanine (protein)
chain: B1 chain with R69A, D71A, A82E, A105R
B7: 95, 97, 122: human NgR1 mutant, listed residues mutated to alanine (protein)
chain: B1 chain with R69A, D71A, A82E, D96A, A105R
B8: 36, 38, 61: human NgR1 mutant, listed residues mutated to alanine (protein)
chain: B1 chain with E10A, K12A, R35A, A82E, A105R
B9: 114, 117, 139: human NgR1 mutant, listed residues mutated to alanine (protein)
chain: B1 chain with A82E, D88A, Q91A, A105R, R113A
B10: 117, 119, 120: human NgR1 mutant, listed residues mutated to alanine (protein)
chain: B1 chain with A82E, Q91A, R93A, S94A, A105R
B11: 216, 218, 220: human NgR1 mutant, listed residues mutated to alanine (protein)
chain: B1 chain with A82E, A105R, H190A, H192A, H194A
B12: 220, 223, 224: human NgR1 mutant, listed residues mutated to alanine (protein)
chain: B1 chain with A82E, A105R, H194A, R197A, D198A
B13: 237, 256, 259: human NgR1 mutant, listed residues mutated to alanine (protein)
chain: B1 chain with A82E, A105R, N211A, R230A, D233A
B14: 256, 259, 284: human NgR1 mutant, listed residues mutated to alanine (protein)
chain: B1 chain with A82E, A105R, R230A, D233A, E258A
B15: 61, 108, 131: human NgR1 mutant, listed residues mutated to alanine (protein)
chain: B1 chain with R35A
B16: 63, 65, 87, 89: human NgR1 mutant, listed residues mutated to alanine (protein)
chain: B1 chain with F37A, H39A, W61A, H63A, A82E, A105R
B17: 237, 256, 284: human NgR1 mutant, listed residues mutated to alanine (protein)
chain: B1 chain with A82E, A105R, N211A, R230A, E258A
B18: human NgR1 alanine mutant 211, 213, 237, 256, 259, 284 (receptor)
chain: B1 chain with A82E, A105R, Q185A, R187A, N211A, R230A, D233A, E258A
B19: human NgR1 alanine mutant 189, 191, 211, 213, 237, 256, 259, 284 (receptor)
chain: B1 chain with A82E, A105R, R163A, S165A, Q185A, R187A, N211A, R230A, D233A, E258A
B20: WT: wild type human NgR1 expressed in COS-7 cells (protein, UniProt Q9BZR6 27-447, looked up)
Reticulon-4 receptor: CPGACVCYNEPKVTTSCPQQGLQAVPVGIPAASQRIFLHGNRISHVPAASFRACRNLTILWLHSNVLARIDAAAFTGLALLEQLDLSDNAQLRSVDPATFHGLGRLHTLHLDRCGLQELGPGLFRGLAALQYLYLQDNALQALPDDTFRDLGNLTHLFLHGNRISSVPERAFRGLHSLDRLLLHQNRVAHVHPHAFRDLGRLMTLYLFANNLSALPTEALAPLRALQYLRLNDNPWVCDCRARPLWAWLQKFRGSSSEVPCSLPQRLAGRDLKRLAANDLQGCAVATGPYHPIWTGRATDEEPLGLPKCCQPDAADKASVLEPGRPASAGNALKGRVPPGDSPPGNGSGPRHINDSPFGTLPGSAEPPLTAVRPEGSEPPGFPTSGPRRRPGCSRKNRTRSHCRLGQAGSGGGGTGDSEGS

Experiment: SDS-PAGE and blot of NgR mutants with anti-NgR antibodies
Design: key: Mutants with expression level similar to WT NgR were labeled as “y”
Details: whole cell lysate of COS-7 cells expressing NgR mutants

| Molecule | NgR band Western |
| --- | --- |
| B1 | y |
| B2 | y |
| B3 | y |
| B4 | y |
| B5 | y |
| B6 | y |
| B7 | y |
| B8 | y |
| B9 | y |
| B10 | y |
| B11 | y |
| B12 | y |
| B13 | y |
| B14 | y |
| B15 | y |
| B16 | y |
| B17 | y |
| B18 | y |
| B19 | y |
| B20 | y |
